In paper PMC8390530:
Read-outs that look alike come from different tables or passages of the source. Results are given in words; binding and its absence hold for the method and conditions named. Some binding calls cover weakened binding; strength is not graded here.

Chains of the proteins cited; added tags and fusions are not shown.
UniProt P09022: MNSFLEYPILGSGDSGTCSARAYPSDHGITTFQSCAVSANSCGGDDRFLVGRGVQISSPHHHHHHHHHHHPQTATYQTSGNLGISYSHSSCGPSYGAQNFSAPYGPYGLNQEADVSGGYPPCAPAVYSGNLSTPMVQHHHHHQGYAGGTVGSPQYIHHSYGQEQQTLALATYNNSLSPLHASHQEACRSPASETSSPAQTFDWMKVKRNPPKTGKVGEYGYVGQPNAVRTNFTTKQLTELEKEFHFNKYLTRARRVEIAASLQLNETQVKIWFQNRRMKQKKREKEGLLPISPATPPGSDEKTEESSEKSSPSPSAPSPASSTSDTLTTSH
UniProt P17919: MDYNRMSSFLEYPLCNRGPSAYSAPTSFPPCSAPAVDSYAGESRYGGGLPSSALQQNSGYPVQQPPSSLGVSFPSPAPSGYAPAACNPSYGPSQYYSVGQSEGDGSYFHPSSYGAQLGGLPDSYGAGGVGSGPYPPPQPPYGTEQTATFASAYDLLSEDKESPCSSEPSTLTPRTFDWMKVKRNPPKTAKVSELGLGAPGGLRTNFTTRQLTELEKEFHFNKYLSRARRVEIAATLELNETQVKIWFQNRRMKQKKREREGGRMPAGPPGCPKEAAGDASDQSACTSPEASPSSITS

Columns and labels:
Experiment in all cases: native gel or EMSA; in vitro-translated proteins (2 ul reticulocyte lysate with the desired combination) with 32P-labelled Msgn1-P2 oligonucleotide in PPH binding buffer (10 mM Tris-Cl pH 7.5, 75 mM NaCl, 1 mM EDTA, 6% glycerol, 3 mM spermidine, 1 mM DTT, poly(dIdC)), 30 min on ice, 5% acrylamide gel in 0.5x TBE; the protein complexes are seen only as bound to the labelled DNA
[1] = target: T1, PBX1B (UniProt P41778)
T1 sequence: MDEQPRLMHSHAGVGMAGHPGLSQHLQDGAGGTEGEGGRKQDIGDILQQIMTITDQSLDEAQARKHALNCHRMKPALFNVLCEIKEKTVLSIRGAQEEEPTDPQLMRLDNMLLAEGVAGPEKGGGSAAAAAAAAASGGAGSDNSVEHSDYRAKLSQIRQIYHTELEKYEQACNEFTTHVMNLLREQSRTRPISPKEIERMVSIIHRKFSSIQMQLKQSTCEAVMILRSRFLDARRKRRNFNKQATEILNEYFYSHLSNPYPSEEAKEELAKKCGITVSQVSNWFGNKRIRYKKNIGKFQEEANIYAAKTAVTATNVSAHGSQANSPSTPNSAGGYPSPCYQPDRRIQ

[2] = target: T2, PBX2 (UniProt O35984)
T2 sequence: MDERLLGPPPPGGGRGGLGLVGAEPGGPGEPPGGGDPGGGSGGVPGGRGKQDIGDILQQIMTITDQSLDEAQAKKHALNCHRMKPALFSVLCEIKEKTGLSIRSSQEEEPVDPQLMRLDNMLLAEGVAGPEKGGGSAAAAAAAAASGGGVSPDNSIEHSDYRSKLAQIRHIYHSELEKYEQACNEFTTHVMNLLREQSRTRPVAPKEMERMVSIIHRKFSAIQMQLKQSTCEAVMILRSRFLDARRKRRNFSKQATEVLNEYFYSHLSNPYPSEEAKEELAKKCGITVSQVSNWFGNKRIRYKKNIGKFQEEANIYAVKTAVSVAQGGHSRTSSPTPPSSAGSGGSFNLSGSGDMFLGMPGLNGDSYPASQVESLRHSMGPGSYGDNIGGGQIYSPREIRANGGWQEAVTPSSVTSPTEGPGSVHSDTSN

[3] = target: T3, PBX1A (UniProt P41778)
T3 sequence: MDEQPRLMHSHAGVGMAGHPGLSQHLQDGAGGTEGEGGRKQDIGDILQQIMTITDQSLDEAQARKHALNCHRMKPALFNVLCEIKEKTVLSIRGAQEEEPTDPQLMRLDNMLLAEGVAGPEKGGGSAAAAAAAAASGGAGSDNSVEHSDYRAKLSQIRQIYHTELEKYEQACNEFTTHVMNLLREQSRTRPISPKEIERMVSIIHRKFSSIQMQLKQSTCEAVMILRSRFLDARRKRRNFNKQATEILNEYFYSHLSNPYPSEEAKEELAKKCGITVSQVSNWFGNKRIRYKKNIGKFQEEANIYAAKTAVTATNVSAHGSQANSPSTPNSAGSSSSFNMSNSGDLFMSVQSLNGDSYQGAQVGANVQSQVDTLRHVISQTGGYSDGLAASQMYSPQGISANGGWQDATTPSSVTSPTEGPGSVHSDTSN

[4] = target: T4, PBX3A (UniProt O35317)
T4 sequence: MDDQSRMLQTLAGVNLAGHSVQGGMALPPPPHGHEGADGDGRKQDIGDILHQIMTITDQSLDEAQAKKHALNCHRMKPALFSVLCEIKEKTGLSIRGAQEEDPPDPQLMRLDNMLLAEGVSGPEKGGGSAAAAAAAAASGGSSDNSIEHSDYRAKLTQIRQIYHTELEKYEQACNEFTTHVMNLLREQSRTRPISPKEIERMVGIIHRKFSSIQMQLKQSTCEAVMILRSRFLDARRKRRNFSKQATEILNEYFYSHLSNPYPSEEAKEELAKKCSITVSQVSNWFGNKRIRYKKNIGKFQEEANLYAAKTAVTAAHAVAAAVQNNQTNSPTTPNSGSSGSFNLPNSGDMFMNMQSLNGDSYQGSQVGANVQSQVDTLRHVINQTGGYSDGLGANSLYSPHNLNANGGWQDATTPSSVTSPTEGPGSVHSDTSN

[5] = target: T1, PBX1B; remark: listed apart in the source
[6] = target: T2, PBX2; remark: listed apart in the source
[7] = target: T3, PBX1A; remark: listed apart in the source
[8] = target: T4, PBX3A; remark: listed apart in the source

Measured: binding

HOXA1 (from UniProt P09022 1-331)
binds: [1] | [2] | [3] | [4]

HOXB1 (from UniProt P17919 1-297)
binds: [1] | [2] | [3] | [4]

B1: MEIS2 (protein, UniProt P97367 1-477)
chain: MAQRYDELPHYGGMDGVGVPASMYGDPHAPRPIPPVHHLNHGPPLHATQHYGAHAPHPNVMPASMGSAVNDALKRDKDAIYGHPLFPLLALVFEKCELATCTPREPGVAGGDVCSSDSFNEDIAVFAKQVRAEKPLFSSNPELDNLMIQAIQVLRFHLLELEKVHELCDNFCHRYISCLKGKMPIDLVIDERDGSSKSDHEELSGSSTNLADHNPSSWRDHDDATSTHSAGTPGPSSGGHASQSGDNSSEQGDGLDNSVASPGTGDDDDPDKDKKRQKKRGIFPKVATNIMRAWLFQHLTHPYPSEEQKKQLAQDTGLTILQVNNWFINARRRIVQPMIDQSNRAGFLLDPSVSQGAAYSPEGQPMGSFVLDGQQHMGIRPAGLQSMPGDYVSQGGPMGMGMAQPSYTPPQMTPHPTQLRHGPPMHSYLPSHPHHPAMVMHGGPPTHPGMTMSAQSPTMLNSVDPNVGGQVMDIHAQ
binds: [5] | [6] | [7] | [8]

B2: PREP1 (protein, UniProt O70477 1-436)
chain: MMATQTLSIDSYQDGQQMQVVTELKTEQDPNCSDPDAEGVSPPPIESQTPMDADKQAIYRHPLFPLLALLFEKCEQSTQGSEGTTSASFDVDIENFVRKQEKDGKPFFCEDPETDNLMVKAIQVLRIHLLELEKVNELCKDFCSRYIACLKTKMNSETLLSGEPGSPYSPVQSQQIQSAITGTLSPQGIVVPASALQQGNVTMATVAGGTVYQPVTVVTPQGQVVTQALSPGTIRIQNSQLQLQLNQDLSILHQEDGSSKNKRGVLPKHATNVMRSWLFQHIGHPYPTEDEKKQIAAQTNLTLLQVNNWFINARRRILQPMLDSSCSETPKTKKKPAQNRPVQRFWPDSLASGVAQATPSELAMSEGAVVTITTPVNMNVDSLQSLSSDGATLAVQQVMMAGQSEDESVDSTEDEGGALAPTHISGLVLENSDSLQ
binds: [5] | [6] | [7] | [8]
